Measured values taken from patent US6162875A, “Low nitrosamine systems for rubber vulcanization” (Robinson Brothers Limited, priority 1992, dated 2000).

Test: Monsanto rheograph, accelerators in natural rubber at 160° C.
Details: 0.8 parts accelerator, 2.5 parts sulphur

Substance: zinc diisononyldithiocarbamate [Example 1]
- Max. torque: 32.5 kg·cm
- Time to 50% cure: 2.52 min
- Time to 90% cure: 5.40 min
- Time to highest cure rate: 2.26 min
- Time to two point rise: 2.04 min
